Results reported in article PMC10163288.
Some of the results follow.

B1: il10ra_site1_normal_mot_HHH_b1_07278_000000273_0001_1_20_H_._637cc8c69280e3cc9e9840e2bee06d3a_0001_1_0001_0000200003_0000001_0 (protein)
chain: SVEELLEELEKRNWIFVRSLRLLLEQLREDPNDEAVREALRHLERIAKELGDPLLEEILELIIEG
B2: il10ra_site1_sap_16_mot_HHH_b2_04274_000000146_0001_1_19_H_._HHH_b2_04971_0001_0000200017_0000003_0_0001 (protein)
chain: SSSSDEEERALELAVRASKLIWEGDEEEAREVIEELEEIVRKIGDERLRLSVRFLKALLKSSSSS
B3: il10ra_site1_sap_11_mot_HHH_b1_00329_000000081_0001_1_16_H_._HHH_b1_07089_0001_0000100023_0000001_0_0001_af2pred_0001 (protein)
chain: SSSSSEEEILRRQARALELAVRTNDPEKIRLAAHDLLLLAELANDEEIFERAERILEEVNSSSSS
B4: il10ra_site1_normal_mot_3af0db62db2b275566dae2e03bf881fa_0001_000000003_0001_37_50_H_._HHH_b2_01366_0001_0000200011_0000001_0_af2pred_dldesign_0_af2pred (protein)
chain: SSSSSEERLRAQAILDFAKHMKNPEVATKALEIALEIAKKEKDEELIAEIEAALAELEKLSSSSS
B5: il10ra_site1_sap_30_mot_HHH_b2_03743_af2_000000240_0001_38_52_H_._HHH_b2_01499_0001_0000200012_0000001_0_0001 (protein)
chain: SSSSSMDEELLRAIVRLIEELGDPEAAEEVRELLEEYEEKGDPRALKEAAEILARVSRRRFSSSS
B6: il10ra_site1_normal_mot_812af5c65f29141b25d3ed263bec1fb2_0001_1_000000083_0001_36_50_H_._HHH_b2_06063_0001_0000100001_0000001_1_af2pred_0001 (protein)
chain: SSSSSDEELREEVEELLEEAKHIDDPEEAAQVLLRALELAYELGDPELIQLVAEVAQRLKSSSSS
B7: il10ra_site1_sap_27_mot_HHH_b1_06912_af2_000000235_0001_1_15_H_._HHH_b1_07772_0001_0000200015_0000002_0_0001 (protein)
chain: SSSSSSDEAAHLSLEAFRAALRGDEEKAEEILEEAEEVAREEGDPRLLRVIEDLLRVLKSSSSSS
B8: il10ra_site1_sap_18_mot_HHH_b2_01205_000000166_0001_1_19_H_._HHH_b1_04855_0001_0000400030_0000001_0_0001 (protein)
chain: SSSSSEEEVEELLREAERLLENGNPRKAIEVLLRAVRIAVKANNWELLHEVWRLIKEIAENSSSS
B9: il10ra_site1_sap_22_mot_HHH_b2_06795_000000133_0001_42_56_H_._HHH_b2_02890_0002_0000200012_0000001_0_0001 (protein)
chain: SSSSDELEELLRQLEEAVEEGDQELVQRLALRVVRLAFENQDREVLHEVWRLIKEFAERLSSSSS
B10: il10ra_site1_sap_31_mot_HHH_b1_08477_000000091_0001_40_57_H_._HHH_b2_07133_0001_0000300015_0000001_0_0001 (protein)
chain: SSSSSDEEHQLELALRFARWLIEAGDEEAARFILEVVLEMARRAGDEEIQREAEELLEEISSSSS
B11: il10ra_site1_normal_mot_HHH_b2_07642_af2_000000000_0001_1_18_H_._HHH_b1_05285_af2_0001_0000300016_0000001_0 (protein)
chain: SSSSQEEYQEFAEIVAEALRKLMEEGDEETLEELLRLLEEAIRHLDPELFEEVEELAQKVLSSSS
B12: il10ra_site1_sap_25_mot_HHH_b2_00952_af2_000000228_0001_1_18_H_._HHH_b1_05785_af2_0001_0000100007_0000001_0_0001 (protein)
chain: SSSSDRYERVERLIERIVQLIREGDEEEARELLRELEELAKEAGNPFLEFIVRMLERLIDSSSSS
B13: il10ra_site1_normal_mot_HHH_b1_03353_af2_000000170_0001_1_18_H_._HHH_b2_06094_0001_0000200022_0000002_0 (protein)
chain: SSSSSDEWYEFVRKVLEEARELSKRDPEEARELLEEAIEEVEKHNDFLARFSLEHLLKALSSSSS
B14: il10ra_site1_sap_19_mot_HHH_b1_06789_af2_000000041_0001_1_20_H_._HHH_b1_02086_af2_0001_0000200010_0000001_0_0001 (protein)
chain: SSSSSSDETEELRERLEELLEEGDEEELKRLLLEALHVAFRHRDQELIRLLWELVKRASSSSSSS
B15: il10ra_site1_normal_mot_3af0db62db2b275566dae2e03bf881fa_0001_000000003_0001_37_50_H_._HHH_b1_05063_af2_0001_0000400010_0000001_1 (protein)
chain: SSSSSSQEETRAEAILYFAELADNPEARRRALEYALELARRLGDEELEEEIERLLEEINSSSSSS
B16: il10ra_site1_normal_mot_HHH_b2_04251_af2_000000037_0001_42_56_H_._HHH_b2_02046_0001_0000300014_0000001_0_af2pred_dldesign_0_af2pred (protein)
chain: SSSSDPAAVVAELTAKVKALLEAGKLEEAAEVLRELSRFALENKNQEAIAAIKELAKEILESSSS
B17: il10ra_site1_sap_34_mot_HHH_b1_02351_af2_000000121_0001_21_38_H_._HHH_b2_02873_0001_0000100012_0000001_0_0001_af2pred_0001 (protein)
chain: SSSSSDERQARNEVEALLFFAKVSSNEEAVELALELAEELAKEANDPELEELVREVKEELSSSSS
B18: il10ra_site1_normal_mot_HHH_b2_02053_af2_000000006_0001_3_19_H_._HHH_b1_02427_0001_0000100007_0000001_0 (protein)
chain: SSSSDAEELYELSRKALELLANGNPEEAEKLLEEAQKIAEEANNKVILFNIRFLLRQVERQSSSS
B19: il10ra_site1_normal_mot_HHH_b1_02062_000000185_0001_1_20_H_._HHH_b2_02790_af2_0001_0000600027_0000002_0 (protein)
chain: SSSSDASEEAYELSRKAAELASEGDEEEFEKVVKEAEELAEEANNEIIRFALEHLKRTLESSSSS
B20: il10ra_site1_sap_14_mot_8756ee2cf497b5429c717dfc0c0bcfd6_0001_000000186_0001_1_13_H_._HHH_b2_06886_af2_0001_0000600033_0000001_0_0001 (protein)
chain: SSSSDLEEEIKELLEELQELIEEGDSEEALRLAMRILRLIFRLGNPELLEEVWRLVRRLRSSSSS
B21: il10ra_site1_normal_mot_HHH_b2_06602_000000226_0001_1_16_H_._HHH_b1_00527_0001_0000200022_0000001_0_af2pred_0001 (protein)
chain: SSSSSEEEELEEELFKLLAELYRTGDPRLREEVEELAKRIEEENPELRQFAQAVLRSAELLSSSS
B22: il10ra_site1_sap_20_mot_HHH_b2_03220_af2_000000223_0001_23_40_H_._HHH_b1_06492_0001_0000300022_0000001_0_0001_af2pred_0001 (protein)
chain: SSSSDRDEEAVRRALEFAEWLYRQGDERAVRIILKAAEDIAKRANDPELERLVKEVEEELSSSSS
B23: il10ra_site1_sap_18_mot_HHH_b1_07097_af2_000000269_0001_1_16_H_._HHH_b2_05178_af2_0001_0000200016_0000001_1_0001 (protein)
chain: SSSDELEEYAELTKRFIRFLLENGDKESVRRMLKALKDIAKQLNDEELEEEIKELRELLEELSSS
B24: il10ra_site1_normal_mot_8756ee2cf497b5429c717dfc0c0bcfd6_0001_000000186_0001_1_13_H_._HHH_b1_02412_af2_0001_0000300023_0000001_0_af2pred_0001 (protein)
chain: SSSSSLAEQVLELIREAMELLSEGNPEEAEKLLEEAEELAEEAGNEALRAVLEFILKHVRQSSSS

target: il10ra, Q13651; assay: yeast display titration

Apparent Kd, inactive:
B1 no binding seen
B2 no binding seen
B3 no binding seen
B4 no binding seen
B5 no binding seen
B6 no binding seen
B7 no binding seen
B8 no binding seen
B9 no binding seen
B10 no binding seen
B11 no binding seen
B12 no binding seen
B13 no binding seen
B14 no binding seen
B15 no binding seen
B16 no binding seen
B17 no binding seen
B18 no binding seen
B19 no binding seen
B20 no binding seen
B21 no binding seen
B22 no binding seen
B23 no binding seen
B24 no binding seen

Fetched one by one from above, two records:
Apparent Kd, inactive:
B11 no binding seen
B23 no binding seen
